PubChem BioAssay AID624297 (National Center for Advancing Translational Sciences (NCATS), 2012)
Screen size: about 340,000 compounds; about 6,200 (1.8%) were called active. Inconclusive results, whose numbers are uncertain, are shown with a selection of clear calls. Calls come from the whole dose curve; as a rule, active = well fitted activation curve with a large enough effect; inconclusive = small, poorly fitted or top-dose-only effect; inactive = no such curve, though single readings can be large or run the other way. Potencies of inconclusive entries are doubtful fits and often do not repeat.

Assay: A quantitative high throughput screen for small molecules that induce DNA re-replication in SW480 colon adenocarcinoma cells. For re-replication activation: % of control where 0% means no effect. Note: nearly all actives have a fitted effect of over 55% in size.
Settings: Hoechst DNA content imaging, 48 h; re-replication activation: at 46.1 µM (top of the series) unless noted
Summary of the method: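 SW480 cells exposed to compounds for 48 hr at 37 C, 5% CO2, then Hoechst-stained 40 min. Nuclear DNA content imaged by fluorescence scanning (405 nm excitation, 500-530 nm emission); re-replication scored as increased high-intensity nuclei.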
Potency is the fitted concentration of half-maximal effect.

| SMILES | Potency | re-replication activation |
| --- | --- | --- |
| COC(=O)C1=CN(Cc2ccc(OC)c(OC)c2)C=C(C(=O)OC)C1c1ccccc1F | inconclusive: 16.4 µM [activator, single point] | – |
| OC[C@@H]1[C@@H](c2ccccc2)C(c2cccc(Cl)c2)=NN1c1ccccc1 | inconclusive: 1.64 µM [activator, partial curve, poor fit] | – |
| CC[n+]1c(/C=C2/C=C(C)CC(C)(C)C2)sc2ccc(OC)cc21 | inconclusive: 20.6 µM [activator, single point] | – |
| O=C(N/N=C/c1cc2c(cc1Br)OCO2)c1ccccn1 | inactive | – |
| Oc1ccc(C[C@@H]2CNCCN2CC2(c3ccccc3)CC2)cc1 | inconclusive: 29.1 µM [activator, single point] | – |
| Cc1cc2oc3ccc(NCCCn4ccnc4)cc3c(=O)c2cc1C | inconclusive: 14.6 µM [activator, single point] | – |
| CC(O)[C@@]1(O)CC[C@H]2[C@@H]3CC[C@H]4C[C@@H](O)CC[C@]4(C)C3=CC[C@@]21C (stereo partly drawn) | inactive | – |
| COc1cccc(CC(NC(C)=O)C(=O)NC2CCN(c3nc(C)cc(C)c3C#N)CC2)c1OC (stereo not drawn) | inactive | – |
| NC(=O)c1c(NC(=O)c2ccccc2)sc2c1CCN(Cc1ccccc1)C2 | inconclusive: 29.1 µM [activator, single point] | – |
| Cc1nn(-c2ccccc2)c2c1C(=O)N(Cc1ccccc1)C(=O)C(C)(C)C2 | inactive | – |
| CCc1cccc(NC(=O)C2CCCN(S(=O)(=O)c3ccc4[nH]c(=O)ccc4c3)C2)c1 (stereo not drawn) | inconclusive: 29.1 µM [activator, single point] | – |
| Cc1ccc2c(c1)C(O)(C1COC(C)(C)CC1=O)C(=O)N2C (stereo not drawn) | inconclusive: 23.1 µM [activator, single point] | – |
| CC(C)(C)c1ccc(OCCN2CCCC2)cc1 | inactive | – |
| N/C(=N/OC(=O)c1ccccc1Cl)c1ncc([N+](=O)[O-])s1 | inconclusive: 2.91 µM [activator, full curve, poor fit] | – |
| O=C(N/N=C/c1ccc2nccnc2c1)c1ccc(Br)cc1 | inconclusive: 29.1 µM [activator, single point] | – |
| NC(=O)c1cc(S(=O)(=O)NCCc2ccc(S(N)(=O)=O)cc2)cs1 | inconclusive: 18.4 µM [activator, single point] | – |
| CCOc1ccc(NC(=O)COc2ccc3c(c2)CCC3)cc1OC | inconclusive: 1.46 µM [activator, full curve, poor fit] | – |
| O=C(NCc1ccco1)C1Cc2cc(Cl)ccc2O1 (stereo not drawn) | inconclusive: 29.1 µM [activator, single point] | – |
| CCc1ccc(/C=c2\s/c(=C\C(=O)C(C)(C)C)[nH]c2=O)cc1 | inconclusive: 29.1 µM [activator, single point] | – |
| CN1CCN(C2=Cc3ccc(Cl)cc3Sc3ccc(F)cc32)CC1 | active: 3.98 µM | – |
| N#CCSc1ncnc2ccccc12 | inconclusive: 18.4 µM [activator, single point] | – |
| O=C(Nc1nc2ccccc2n1CCN1CCCCC1)c1ccco1 | inconclusive: 23.1 µM [activator, partial curve, poor fit] | – |
| CC(Oc1ccccc1Cl)C(=O)Nc1ccc(S(=O)(=O)N2CCN(C)CC2)cc1 (stereo not drawn) | inconclusive: 20.6 µM [activator, single point] | – |

Of the compounds above, two contain a furan ring, fused or not.

| SMILES | Potency | re-replication activation |
| --- | --- | --- |
| O=C(NCc1ccco1)C1Cc2cc(Cl)ccc2O1 (stereo not drawn) | inconclusive: 29.1 µM [activator, single point] | – |
| O=C(Nc1nc2ccccc2n1CCN1CCCCC1)c1ccco1 | inconclusive: 23.1 µM [activator, partial curve, poor fit] | – |

The list goes on:

| SMILES | Potency | re-replication activation |
| --- | --- | --- |
| COc1ccc(CCNC(=O)c2cc3c(=O)n4cccc(C)c4nc3n(Cc3ccco3)c2=N)cc1OC | inconclusive: 29.1 µM [activator, single point] | – |
| Cc1ccsc1C(=O)NCCc1nnc2ccccn12 | – | inconclusive: 48.9% [activator] |
| Cc1cc(C)nc(N/N=C/C2=C(N3CCOCC3)C(=C/c3ccccc3)/CC2)n1 | active: 16.4 µM | – |
| CC1Cc2ccccc2N1S(=O)(=O)c1cccc(C(=O)NCC(c2ccco2)N2CCCC2)c1 (stereo not drawn) | inconclusive: 20.6 µM [activator, partial curve, poor fit] | – |
| O=C(/C=C/c1ccccc1Cl)N(Cc1ccc(Cl)cc1)C1CCS(=O)(=O)C1 (stereo not drawn) | inactive | – |
| Cc1cc(C)n(CC(O)Cn2c3ccccc3c3ccccc32)c(=O)n1 (stereo not drawn) | inconclusive: 18.4 µM [activator, single point] | – |
| Cc1ccc(-c2csc(NC(=O)c3cccc([N+](=O)[O-])c3)n2)cc1 | inactive | – |
| CN1CCN(C2Cc3ccccc3Sc3cc(C(F)(F)F)ccc32)CC1 (stereo not drawn) | inconclusive: 25.9 µM [activator, single point] | – |
| CC(=O)Nc1nnc(SCC(=O)Nc2ccc3c(c2)OCCO3)s1 | inactive | – |
| CC(Sc1nnc(-c2cccnc2)o1)C(=O)NC1CCCCC1 (stereo not drawn) | inactive | – |
| Cc1ccc(C(=O)N2CCN(c3ncccn3)CC2)c(C)c1 | inactive | – |
| c1ccc2[nH]c(-c3ccc4c(c3)OCO4)nc2c1 | inconclusive: 29.1 µM [activator, single point] | – |
| Cn1c(=O)c(C(=O)COc2ccc(F)cc2Cl)c(N)n(Cc2ccccc2)c1=O | inconclusive: 23.1 µM [activator, partial curve, poor fit] | – |
| C=C(C)[C@@H]1CC=C(CO)CC1 | inconclusive: 3.26 µM [activator, single point] | – |
| CN(C1=C(NC(=O)c2ccc(Cl)cc2)C(=O)c2ccccc2C1=O)c1ccccc1 | inconclusive: 31.6 µM [activator, single point] | – |
| NC1=NC(=O)/C(=C/c2cn(CCC(=O)O)nc2-c2ccc(Cl)cc2)S1 | inactive | – |
| COc1cc(-c2noc(C)c2C#Cc2nccn2C)cc(OC)c1OC | inconclusive: 29.1 µM [activator, single point] | – |
| CN(C)c1nc(OCCNC(=O)Nc2ccccc2)nc(N(C)C)n1 | inactive | – |
| CC(=O)Nc1cccc(NS(=O)(=O)c2cn(C)c(=O)n(C)c2=O)c1 | inactive | – |
| O=[N+]([O-])c1ccc(N2CCCCC2)c(-c2nn[nH]n2)c1 | inactive | – |
| CCOc1ccc(NS(=O)(=O)c2ccc(C(=O)N3CCC3)cc2)cc1 | inactive | – |
| CCCCN(C)C(=O)c1nc2ccccn2c1CN1CCC[C@H]1CO | inactive | – |
| COc1ccccc1N(C)S(=O)(=O)c1ccc(C(=O)NC2CCCCCC2)cc1 | inconclusive: 29.1 µM [activator, single point] | – |

| SMILES | Potency | re-replication activation |
| --- | --- | --- |
| CC1(C)CC(=O)C(C(C2=C(O)CC(C)(C)CC2=O)c2cccs2)C(=O)C1 (stereo not drawn) | inconclusive: 16.4 µM [activator, single point] | – |
| O=C(O)c1ccc(N/N=C/c2ccc(-c3ccc(Cl)cc3Cl)o2)cc1 | active: 23.1 µM | – |
| CCNc1nc(NC(C)(C)C)nc(N2CCCCC2)n1 | active: 14.6 µM | – |
| Cc1ccc(CN(C)C(=O)c2ccc3c(c2)NC(=O)CS3)o1 | inconclusive: 2.59 µM [activator, full curve, poor fit] | – |
| Cc1ccc2c(CC(=O)OCC(=O)N(CC(C)C)c3c(N)n(Cc4ccccc4)c(=O)[nH]c3=O)coc2c1 | active: 6.51 µM | – |
| CCN(Cc1ccncc1)C(=O)CC1C(=O)NCCN1Cc1ccc(F)c(F)c1 (stereo not drawn) | inconclusive: 6.51 µM [activator, full curve, poor fit] | – |
| CCOc1c(OC(C)=O)ccc(/C=C/c2ccc3cccc(OC(C)=O)c3n2)c1[N+](=O)[O-] | inconclusive: 29.1 µM [activator, single point] | – |
| Cc1ccc(NC(=O)C(c2ccc(Cl)cc2Cl)N2CCCC2)cc1 (stereo not drawn) | inactive | – |
| O=C(Oc1c(CN2CCOCC2)cc(Cl)c2cccnc12)c1cccs1 | active: 8.2 µM | – |
| CCc1nnc(NC(=O)CSc2nnc(-c3ccccc3O)n2-c2ccc(C)cc2)s1 | inconclusive: 23.1 µM [activator, single point] | – |
| O=C(O)CSc1nnc(COc2cccc3cccnc23)n1-c1cccc(C(F)(F)F)c1 | inconclusive: 6.51 µM [activator, partial curve, poor fit] | – |
| Cc1ccc(C2C(C#N)=C(N)Oc3n[nH]c(-c4ccccc4)c32)o1 (stereo not drawn) | inconclusive: 29.1 µM [activator, single point] | – |
| COc1ccc(CCn2c(=N)c(C(=O)NCc3ccco3)cc3c(=O)n4cccc(C)c4nc32)cc1 | inconclusive: 18.4 µM [activator, single point] | – |
| O=C(c1ccc(F)c(F)c1)N1CCC2(CC1)NCCc1[nH]cnc12 | inconclusive: 23.1 µM [activator, single point] | – |
| O=[N+]([O-])c1ccc(NC(=S)NCc2ccc(F)cc2)cc1 | inconclusive: 23.1 µM [activator, single point] | – |
| COc1cc(NC(=O)c2ccc(Cl)cc2)c(OC)cc1NC(=O)CN1CCCCC1 | inconclusive: 29.1 µM [activator, partial curve, poor fit] | – |
| COc1ccc(/C=C2\Sc3ccc(C(=O)NCCN4CCCCCC4)cc3N(C)C2=O)cc1 | inactive | – |
| COC(=O)[C@]1(Cc2ccccc2)N[C@H](c2ccc(SC3CCCCC3)c(OC)c2)[C@@H]2C(=O)N(C)C(=O)[C@@H]21 | inconclusive: 16.4 µM [activator, partial curve, poor fit] | – |
| COc1cccc(NC(=O)c2cccc(S(=O)(=O)N3CCN(Cc4ccccc4)CC3)c2)c1 | inconclusive: 11.6 µM [activator, single point] | – |
| CN=C1S/C(=C\c2ccc(O)c(Br)c2)C(=O)N1C | inactive | – |
| Cc1cccc(-n2ncc3c(NNC(=O)c4ccco4)ncnc32)c1 | inconclusive: 6.51 µM [activator, single point] | – |
| CCOC(=O)NCc1ccccc1 | inconclusive: 29.1 µM [activator, partial curve, poor fit] | – |
